# Test results as given in PubChem BioAssay AID1347076 (National Center for Advancing Translational Sciences (NCATS), 2019).
# Among all 400,000 compounds or so, about 13,000 (3.2%) were called active. The shares of active, inactive and inconclusive entries below differ from those in the screen. Calls come from the whole dose curve; as a rule, active = well fitted cell-killing curve with a large enough effect; inconclusive = small, poorly fitted or top-dose-only effect, or effect the other way; inactive = flat fitted curve, though single readings scatter. Potencies beside an inconclusive call are fits to weak or partial responses and may not hold up.
# Test: qHTS assay for MDR1-selective chemotherapeutics: Primary screen using the drug-selected MDR subline cells KB-V1; note: nearly all actives have a fitted effect of over 60% in size
# Settings: KB-V1 MDR cells viability, CellTiter-Glo, 72 h; series mostly up to 46.1 µM
# Outline: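 Readout: CellTiter-Glo luminescence, 10 min after addition. Cells: KB-V1 MDR subline, 72 h at 37 degrees C with compound. Analysis: corrected, normalized data fitted to concentration-effect curves.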
# Potency is the fitted concentration of half-maximal effect.
row,SMILES,Potency
1,CC(C)(C)n1nnnc1C(c1ccccc1)N1CCC2(CC1)C(=O)NCN2c1ccccc1 (centres undefined),inactive
2,C=CCn1c(O)c(C=NC2CCN(Cc3ccccc3)CC2)c(=O)[nH]c1=O,inactive
3,CC(=O)OC1C(=O)OCC23CCC4(C)OC4C2OC2CC(OC(=O)C=CC=CC(=O)OCCC1C)C3(C)C21CO1 (centres undefined),active: 0.366 µM
4,CC1=CC2OC3CC4OC(=O)C=CC=CC(C(C)O)OCC(O)C5(C)OC5C(=O)OCC2(CC1O)C4(C)C31CO1 (centres undefined),"inconclusive: 4.11 µM [cytotoxic, full curve, poor fit]"
5,COc1ccc(C2SCC(=O)Nc3c2c(=O)[nH]n3C2CCCCCC2)cc1OC (centres undefined),"inconclusive: 16.4 µM [cytotoxic, partial curve]"
6,COC(=O)C1=C(c2cc3ccccc3s2)C[C@@H]2CC[C@H]1N2C(=O)NCCS(C)=O (some centres undefined),"inconclusive: 8.2 µM [rising, partial curve]"
7,Cc1ccsc1-c1nc(CSCC(=O)N2CCC3(CC2)OCCO3)c(C)o1,"inconclusive: 16.4 µM [cytotoxic, single point]"
8,Cc1cc(C)cc(N2C(=O)NC(=O)/C(=C/c3cccn3-c3ccc(Cl)cc3)C2=O)c1,inactive
9,CC1(C)N([O])C(c2ccc(C(=O)O)cc2)=[N+]([O-])C1(C)C,"inconclusive: 18.4 µM [rising, partial curve]"
10,CC(=O)OC(C)(C)/C=C/C(=O)[C@](C)(O)C1[C@H](O)C[C@@]2(C)C3CC=C4C(C[C@H](O)C(=O)C4(C)C)[C@]3(C)C(=O)C[C@]12C (some centres undefined),active: 0.92 µM
11,N#CC(C#N)=Cc1ccc(O)c(O)c1,inactive
12,COC(=O)C1=C(c2cccc(C#N)c2)C[C@@H]2CC[C@H]1N2C(=O)NCc1ccc(F)cc1,"inconclusive: 29.1 µM [rising, single point]"
13,Cc1nc2cc(F)ccc2n1C1CCN(Cc2nnnn2CCc2ccccc2)CC1,active: 11.6 µM
14,CNc1ccc2nc3ccccc3[n+](C)c2c1,"inconclusive: 16.4 µM [cytotoxic, partial curve, poor fit]"
15,O=C1NC(=O)N(Cc2ccccc2)C(=O)/C1=C/c1cnc(-c2ccccc2)nc1,inactive
16,CC1CCCC(NC(=O)CNC(=S)N2CC3CC(C2)c2cccc(=O)n2C3)C1C (centres undefined),inactive
17,CC(=O)C1C(N2CC2)CC2C3CCC4=CC(=O)CCC4(C)C3CCC21C (centres undefined),"inconclusive: 29.1 µM [cytotoxic, single point]"
18,Cc1cccc(-n2c(C)nc3ccccc3c2=O)c1C,"inconclusive: 29.1 µM [cytotoxic, single point]"
19,C=CCN1C(=O)/C(=C/c2ccc3c(c2)CCCN3CCC)C(=O)NC1=S,"inconclusive: 29.1 µM [cytotoxic, single point]"

# Some of the entries above in another layout.
row | SMILES | Potency
5 | COc1ccc(C2SCC(=O)Nc3c2c(=O)[nH]n3C2CCCCCC2)cc1OC (centres undefined) | inconclusive: 16.4 µM [cytotoxic, partial curve]
6 | COC(=O)C1=C(c2cc3ccccc3s2)C[C@@H]2CC[C@H]1N2C(=O)NCCS(C)=O (some centres undefined) | inconclusive: 8.2 µM [rising, partial curve]
